Assay results taken from US20030216563A1.
Results are given in words; binding and its absence hold for the method and conditions named. Binding seen in cells or lysates may run through a third protein. Some binding calls cover weakened binding; strength is not graded here.

Key:
[1] = molecular target: GST:Weel^70 (Schizosaccharomyces pombe); assay: GSH-Sepharose pull-down and kinase assays
[2] = molecular target: GST:Weel^70 (Schizosaccharomyces pombe); assay: GSH-Sepharose pull-down from S. pombe lysates, assay of associated kinase activity

B1: Cds1 (enzyme, Schizosaccharomyces pombe, UniProt Q09170 1-460, looked up)
chain: MEEPEEATQATQEAPLHVSQNIAKQVVNNENVFMKLVMTRMLDGKTEVIPLTTDVHNGFWRFGRHKSCEVVLNGPRVSNFHFEIYQGHRNDSDESENVVFLHDHSSNGTFLNFERLAKNSRTILSNGDEIRIGLGVPKDEISFLCQVPVKHSRDSQKNMIKSENSHYEIIRTLGSGTFAVVKLAVEVNSGKWYAIKIINKRKILLTSSEKRATEMFQREIDILKSLHHPGVVQCHEIFENDDELFIVMEYVEGGDLMDFLIANGSIDEQDCKPLLKQLLETLLHLHKQGVTHRDIKPENILITNDFHLKISDFGLAKVIHGTGTFLETFCGTMGYLAPEVLKSKNVNLDGGYDDKVDIWSLGCVLYVMLTASIPFASSSQAKCIELISKGAYPIEPLLENEISEEGIDLINRMLEINPEKRISESEALQHPWFYTVSTHEHRTPPSSSEHEATEQLNSSS
binding [1]: binds
binding [2]: binds
